# Publication PMC8837033
# Chains of the proteins cited; added tags and fusions are not shown. Residues count along the entry.
# UniProt P20491, residues 19-86: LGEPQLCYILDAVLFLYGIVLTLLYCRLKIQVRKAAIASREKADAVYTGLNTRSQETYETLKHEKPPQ
# UniProt Q9NYZ4, residues 17-499: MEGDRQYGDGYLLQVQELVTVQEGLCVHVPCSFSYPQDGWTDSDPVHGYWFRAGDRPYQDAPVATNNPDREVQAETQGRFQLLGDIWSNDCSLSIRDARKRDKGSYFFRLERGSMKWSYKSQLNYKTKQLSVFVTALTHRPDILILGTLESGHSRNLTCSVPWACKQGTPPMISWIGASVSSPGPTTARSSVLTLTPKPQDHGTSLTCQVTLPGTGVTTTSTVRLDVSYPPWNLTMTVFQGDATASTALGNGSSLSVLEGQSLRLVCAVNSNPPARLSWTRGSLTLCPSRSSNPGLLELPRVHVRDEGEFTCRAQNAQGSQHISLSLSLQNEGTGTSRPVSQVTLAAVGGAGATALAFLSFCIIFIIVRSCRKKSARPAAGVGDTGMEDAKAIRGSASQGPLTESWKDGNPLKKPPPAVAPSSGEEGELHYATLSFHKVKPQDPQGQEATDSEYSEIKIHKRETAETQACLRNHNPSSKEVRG
# UniProt P25911: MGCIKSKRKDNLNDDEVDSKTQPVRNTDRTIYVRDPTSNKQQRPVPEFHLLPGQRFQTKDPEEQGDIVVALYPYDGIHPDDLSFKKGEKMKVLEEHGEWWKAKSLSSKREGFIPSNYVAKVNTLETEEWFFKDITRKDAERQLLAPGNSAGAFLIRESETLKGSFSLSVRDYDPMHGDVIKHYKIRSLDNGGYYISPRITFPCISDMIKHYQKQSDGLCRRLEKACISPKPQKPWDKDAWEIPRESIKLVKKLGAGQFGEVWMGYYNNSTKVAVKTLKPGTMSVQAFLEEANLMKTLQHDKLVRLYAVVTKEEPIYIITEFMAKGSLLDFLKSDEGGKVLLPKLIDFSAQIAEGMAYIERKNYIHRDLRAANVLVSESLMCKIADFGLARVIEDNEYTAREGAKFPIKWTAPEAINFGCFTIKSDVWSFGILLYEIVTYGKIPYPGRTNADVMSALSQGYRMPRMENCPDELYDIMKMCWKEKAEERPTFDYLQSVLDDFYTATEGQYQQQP
# These are yes or no findings as the source states them, for the method shown. Binding seen in cells or lysates may run through a third protein. Some entries that bind do so weakly or less than the wild type.
# What was measured:
# FcεRIγ-HA = FcεRIγ-HA (UniProt P20491); test: co-IP; anti-HA magnetic agarose beads on lysates of unstimulated BMMC transfected with Siglec-8-FLAG and FcεRIγ-HA; blot with anti-FLAG
# [1] = molecular target: Siglec-8 expressed in bone marrow mast cells from Siglec-8 transgenic mice (human) (UniProt Q9NYZ4); test: co-IP; anti-Siglec-8 polyclonal rabbit antibody and Protein A/G beads on S8-BMMC lysate, isotype IP as control; blot with anti-Lyn
binding (FcεRIγ-HA),binding [1],Substance
binds,,wild-type full-length Siglec-8 fused with an N-terminal FLAG tag (from UniProt Q9NYZ4 17-499) (receptor)
,binds,Src kinase Lyn (from UniProt P25911 1-512) (enzyme)
